# Assay results from the supplement of paper PMC8728848.
# This is one part of the list.
# B1: Aap brpt (Staphylococcus epidermidis) (protein)
# chain: VDGDPITSTEEIPFDKKREFDPNLAPGTEKVVQKGEPGTKTITTPTTKNPLTGEKVGEGEPTEKITKQPVDEIVHYGGEEIKTGHKDEFDPNAPKGSQTTQPGKPGVKNPDTGEVVTPPVDDVTKYGPVDGDPITSTEEIPFDKKREFDPNLAPGTEKVVQKGEPGTKTITTPTTKNPLTGEKVGEGEPTEKITKQPVDEIVHYGGEEIKPGHKDEFDPNAPKGSQEDVPGKPGVKNPDTGEVVTPPVDDVTKYGPVDGDSITSTEEIPFDKKREFDPNLAPGTEKVVQKGEPGTKTITTPTTKNPLTGEKVGEGEPTEKITKQPVDEIVHYGGEQIPQGHKDEFDPNAPVDSKTEVPGKPGVKNPDTGEVVTPPVDDVTKYGPVDGDSITSTEEIPFDKKREFDPNLAPGTEKVVQKGEPGTKTITTPTTKNPLTGEKVGEGKSTEKVTKQPVDEIVEYGPTK
# Legend:
# Assay in all cases: glycan array binding signal (z-score within array); higher = stronger binding
# Conditions in all cases: glycan notation: IUPAC condensed, linker removed
# Fuc(a1-2)Gal = molecular target: Fuc(a1-2)Gal
# Method in brief: (§1)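 Negative Z-scores can be read as non-binding. The Z-score is calculated within each array and then averaged across arrays of one protein sequence at different concentrations or buffers and across linkers. Arrays, 3228 in all, were curated from the Consortium for Functional Glycomics database and kept only where the protein sequence was available.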
# Fuc(a1-2)Gal(b1-3)GalNAc = molecular target: Fuc(a1-2)Gal(b1-3)GalNAc
# Method in brief: as §1
# [1] = molecular target: Fuc(a1-2)Gal(b1-3)GalNAc(a1-3)[Fuc(a1-2)]Gal(b1-4)Glc
# Method in brief: as §1
# [2] = molecular target: Fuc(a1-2)Gal(b1-3)GalNAc(a1-3)[Fuc(a1-2)]Gal(b1-4)GlcNAc
# Method in brief: as §1
# [3] = molecular target: Fuc(a1-2)Gal(b1-3)GalNAc(b1-3)Gal
# Method in brief: as §1
# [4] = molecular target: Fuc(a1-2)Gal(b1-3)GalNAc(b1-3)Gal(a1-4)Gal(b1-4)Glc
# Method in brief: as §1
# [5] = molecular target: Fuc(a1-2)Gal(b1-3)GalNAc(b1-4)[Neu5Ac(a2-3)]Gal(b1-4)Glc
# Method in brief: as §1
# Fuc(a1-2)Gal(b1-3)GlcNAc = molecular target: Fuc(a1-2)Gal(b1-3)GlcNAc
# Method in brief: as §1
# [6] = molecular target: Fuc(a1-2)Gal(b1-3)GlcNAc(b1-2)Man(a1-3)[Fuc(a1-2)Gal(b1-3)GlcNAc(b1-2)Man(a1-6)]Man(b1-4)GlcNAc(b1-4)GlcNAc
# Method in brief: as §1
# [7] = molecular target: Fuc(a1-2)Gal(b1-3)GlcNAc(b1-2)Man(a1-3)[Fuc(a1-2)Gal(b1-3)GlcNAc(b1-2)Man(a1-6)]Man(b1-4)GlcNAc(b1-4)[Fuc(a1-6)]GlcNAc
# Method in brief: as §1
# [8] = molecular target: Fuc(a1-2)Gal(b1-3)GlcNAc(b1-3)Gal(b1-4)Glc
# Method in brief: as §1
# [9] = molecular target: Fuc(a1-2)Gal(b1-3)GlcNAc(b1-3)GalNAc
# Method in brief: as §1
# [10] = molecular target: Fuc(a1-2)Gal(b1-3)GlcNAc(b1-3)[Fuc(a1-2)Gal(b1-3)GlcNAc(b1-6)]GalNAc
# Method in brief: as §1
# [11] = molecular target: Fuc(a1-2)Gal(b1-3)GlcNAc(b1-3)[Gal(b1-4)GlcNAc(b1-6)]Gal(b1-4)Glc
# Method in brief: as §1
# [12] = molecular target: Fuc(a1-2)Gal(b1-3)GlcNAc(b1-3)[Neu5Ac(a2-6)Gal(b1-4)GlcNAc(b1-6)]Gal(b1-4)Glc
# Method in brief: as §1
# [13] = molecular target: Fuc(a1-2)Gal(b1-3)GlcNAc6S
# Method in brief: as §1
# [14] = molecular target: Fuc(a1-2)Gal(b1-3)[Fuc(a1-4)]GlcNAc
# Method in brief: as §1
# [15] = molecular target: Fuc(a1-2)Gal(b1-3)[Fuc(a1-4)]GlcNAc(b1-2)Man(a1-3)[Fuc(a1-2)Gal(b1-3)[Fuc(a1-4)]GlcNAc(b1-2)Man(a1-3)]Man(b1-4)GlcNAc(b1-4)GlcNAc
# Method in brief: as §1
# [16] = molecular target: Fuc(a1-2)Gal(b1-3)[Fuc(a1-4)]GlcNAc(b1-2)Man(a1-3)[Fuc(a1-2)Gal(b1-3)[Fuc(a1-4)]GlcNAc(b1-2)Man(a1-6)]Man(b1-4)GlcNAc(b1-4)[Fuc(a1-6)]GlcNAc(b1-4)[Fuc(a1-6)]GlcNAc
# Method in brief: as §1
# [17] = molecular target: Fuc(a1-2)Gal(b1-3)[Fuc(a1-4)]GlcNAc(b1-3)[Fuc(a1-3)[Gal(b1-4)]GlcNAc(b1-6)]Gal(b1-4)Glc
# Method in brief: as §1
# [18] = molecular target: Fuc(a1-2)Gal(b1-3)[Fuc(a1-4)]GlcNAc(b1-3)[Gal(b1-4)GlcNAc(b1-6)]Gal(b1-4)Glc
# Method in brief: as §1
# Fuc(a1-2)Gal(b1-4)Glc = molecular target: Fuc(a1-2)Gal(b1-4)Glc
# Method in brief: as §1
# Fuc(a1-2)Gal(b1-4)Glc6S = molecular target: Fuc(a1-2)Gal(b1-4)Glc6S
# Method in brief: as §1
# Fuc(a1-2)Gal(b1-4)GlcNAc = molecular target: Fuc(a1-2)Gal(b1-4)GlcNAc
# Method in brief: as §1
# [19] = molecular target: Fuc(a1-2)Gal(b1-4)GlcNAc(b1-2)Man
# Method in brief: as §1
# [20] = molecular target: Fuc(a1-2)Gal(b1-4)GlcNAc(b1-2)Man(a1-3)[Fuc(a1-2)Gal(b1-4)GlcNAc(b1-2)Man(a1-6)]Man(b1-4)GlcNAc(b1-4)GlcNAc
# Method in brief: as §1
# [21] = molecular target: Fuc(a1-2)Gal(b1-4)GlcNAc(b1-2)Man(a1-3)[Fuc(a1-2)Gal(b1-4)GlcNAc(b1-2)Man(a1-6)]Man(b1-4)GlcNAc(b1-4)[Fuc(a1-6)]GlcNAc
# Method in brief: as §1
# [22] = molecular target: Fuc(a1-2)Gal(b1-4)GlcNAc(b1-2)[Fuc(a1-2)Gal(b1-4)GlcNAc(b1-4)]Man(a1-3)[Fuc(a1-2)Gal(b1-4)GlcNAc(b1-2)Man(a1-6)]Man(b1-4)GlcNAc(b1-4)GlcNAc
# Method in brief: as §1
# [23] = molecular target: Fuc(a1-2)Gal(b1-4)GlcNAc(b1-3)Gal(b1-4)GlcNAc
# Method in brief: as §1
# [24] = molecular target: Fuc(a1-2)Gal(b1-4)GlcNAc(b1-3)Gal(b1-4)GlcNAc(b1-2)Man(a1-3)[Fuc(a1-2)Gal(b1-4)GlcNAc(b1-3)Gal(b1-4)GlcNAc(b1-2)Man(a1-6)]Man(b1-4)GlcNAc(b1-4)GlcNAc
# Method in brief: as §1
# [25] = molecular target: Fuc(a1-2)Gal(b1-4)GlcNAc(b1-3)Gal(b1-4)GlcNAc(b1-3)Gal(b1-4)GlcNAc
# Method in brief: as §1
# [26] = molecular target: Fuc(a1-2)Gal(b1-4)GlcNAc(b1-3)GalNAc
# Method in brief: as §1
# [27] = molecular target: Fuc(a1-2)Gal(b1-4)GlcNAc(b1-3)[Fuc(a1-2)Gal(b1-4)GlcNAc(b1-6)]GalNAc
# Method in brief: as §1
# [28] = molecular target: Fuc(a1-2)Gal(b1-4)GlcNAc(b1-3)[Fuc(a1-3)[Gal(b1-4)]GlcNAc(b1-6)]Gal(b1-4)Glc
# Method in brief: as §1
# [29] = molecular target: Fuc(a1-2)Gal(b1-4)GlcNAc(b1-6)GalNAc
# Method in brief: as §1
# [30] = molecular target: Fuc(a1-2)Gal(b1-4)GlcNAc6S
# Method in brief: as §1
# [31] = molecular target: Fuc(a1-2)Gal(b1-4)[Fuc(a1-3)]GlcNAc
# Method in brief: as §1
binder,measurement,setting,value
B1,glycan array binding signal (z-score),Fuc(a1-2)Gal,0.249
same,glycan array binding signal (z-score),Fuc(a1-2)Gal(b1-3)GalNAc,-1
same,glycan array binding signal (z-score),[1],1.2
same,glycan array binding signal (z-score),[2],1.13
same,glycan array binding signal (z-score),[3],-0.739
same,glycan array binding signal (z-score),[4],0.375
same,glycan array binding signal (z-score),[5],-0.026
same,glycan array binding signal (z-score),Fuc(a1-2)Gal(b1-3)GlcNAc,-0.441
same,glycan array binding signal (z-score),[6],-0.377
same,glycan array binding signal (z-score),[7],-1.22
same,glycan array binding signal (z-score),[8],0.714
same,glycan array binding signal (z-score),[9],-0.282
same,glycan array binding signal (z-score),[10],0.721
same,glycan array binding signal (z-score),[11],0.337
same,glycan array binding signal (z-score),[12],-1.43
same,glycan array binding signal (z-score),[13],1.76
same,glycan array binding signal (z-score),[14],0.474
same,glycan array binding signal (z-score),[15],-0.504
same,glycan array binding signal (z-score),[16],0.352
same,glycan array binding signal (z-score),[17],0.248
same,glycan array binding signal (z-score),[18],-0.192
same,glycan array binding signal (z-score),Fuc(a1-2)Gal(b1-4)Glc,1.19
same,glycan array binding signal (z-score),Fuc(a1-2)Gal(b1-4)Glc6S,-0.576
same,glycan array binding signal (z-score),Fuc(a1-2)Gal(b1-4)GlcNAc,-0.952
same,glycan array binding signal (z-score),[19],-0.269
same,glycan array binding signal (z-score),[20],-0.497
same,glycan array binding signal (z-score),[21],-0.329
same,glycan array binding signal (z-score),[22],0.106
same,glycan array binding signal (z-score),[23],-0.45
same,glycan array binding signal (z-score),[24],-1.91
same,glycan array binding signal (z-score),[25],0.152
same,glycan array binding signal (z-score),[26],-0.637
same,glycan array binding signal (z-score),[27],0.069
same,glycan array binding signal (z-score),[28],0.44
same,glycan array binding signal (z-score),[29],0.068
same,glycan array binding signal (z-score),[30],0.538
same,glycan array binding signal (z-score),[31],1.5

# 2 entries picked at random from those above:
binder,measurement,setting,value
B1,glycan array binding signal (z-score),[26],-0.637
same,glycan array binding signal (z-score),[23],-0.45
